Laboratory results published in US20080051336A1 (Janssen / Centocor, published 2008).
No constants are given. Whether binding was seen depends on the method and setting. Some results given as binding are weak or reduced against the parent protein; the word gives no strength.

How the values were obtained:
human LGR7 [1] = target: T1, human LGR7 (human, UniProt Q9HBX9 1-757); experiment: direct radioligand binding, monolayer cells expressing recombinant LGR7
T1 sequence (looked up): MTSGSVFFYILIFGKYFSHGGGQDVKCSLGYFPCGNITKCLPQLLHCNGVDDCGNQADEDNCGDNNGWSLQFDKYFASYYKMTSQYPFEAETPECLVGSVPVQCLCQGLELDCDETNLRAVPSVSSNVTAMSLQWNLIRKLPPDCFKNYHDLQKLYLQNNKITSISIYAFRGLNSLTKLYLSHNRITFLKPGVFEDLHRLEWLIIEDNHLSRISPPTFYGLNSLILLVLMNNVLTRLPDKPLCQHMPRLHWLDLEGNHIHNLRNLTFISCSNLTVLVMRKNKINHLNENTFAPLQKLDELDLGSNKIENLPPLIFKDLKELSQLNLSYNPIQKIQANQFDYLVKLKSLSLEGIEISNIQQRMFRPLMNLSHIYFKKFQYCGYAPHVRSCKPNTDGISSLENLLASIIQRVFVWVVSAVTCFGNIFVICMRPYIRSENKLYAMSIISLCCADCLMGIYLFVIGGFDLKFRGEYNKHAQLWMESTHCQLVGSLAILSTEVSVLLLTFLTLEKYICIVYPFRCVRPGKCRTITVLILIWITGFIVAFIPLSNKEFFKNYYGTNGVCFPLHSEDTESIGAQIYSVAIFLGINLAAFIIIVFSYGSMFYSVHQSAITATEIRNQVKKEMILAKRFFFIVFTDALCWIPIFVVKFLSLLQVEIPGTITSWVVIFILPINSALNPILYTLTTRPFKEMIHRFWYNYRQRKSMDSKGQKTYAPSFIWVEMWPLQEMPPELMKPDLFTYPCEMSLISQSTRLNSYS

rat GPCR135 (rat) = target: T2, rat GPCR135 (rat); experiment: displacement of 7 pM [125I]-R3/I5, rat brain sections, autoradiography
T2 sequence: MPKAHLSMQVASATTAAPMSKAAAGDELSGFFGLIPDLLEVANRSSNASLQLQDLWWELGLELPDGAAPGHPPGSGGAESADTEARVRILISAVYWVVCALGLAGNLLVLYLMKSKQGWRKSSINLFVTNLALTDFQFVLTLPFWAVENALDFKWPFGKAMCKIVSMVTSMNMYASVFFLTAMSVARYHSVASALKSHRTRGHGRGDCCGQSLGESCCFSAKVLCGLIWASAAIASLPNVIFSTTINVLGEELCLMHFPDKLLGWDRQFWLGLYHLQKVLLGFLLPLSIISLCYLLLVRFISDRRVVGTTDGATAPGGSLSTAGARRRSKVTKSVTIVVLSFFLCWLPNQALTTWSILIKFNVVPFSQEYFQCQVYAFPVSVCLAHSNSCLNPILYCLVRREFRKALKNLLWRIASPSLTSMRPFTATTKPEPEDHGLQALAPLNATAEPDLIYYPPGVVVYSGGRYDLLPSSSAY

human LGR7 [2] = target: T1, human LGR7; experiment: direct radioligand binding, 100 pM, COS-7 cells transfected with human LGR7

Measured: binding

B1: human relaxin-3 (ligand)
chain: RAAPYGVRLCGREFIRAVIFTCGGSRWDVLAGLSSSCCKWGCSKSEISSLC
binds: human LGR7 [1] | rat GPCR135 (rat) | human LGR7 [2]
